# Data from article PMC4057170.
# Sequences of proteins named here, by UniProt entry; tags and fusion partners are left off.
# UniProt Q9UBB5: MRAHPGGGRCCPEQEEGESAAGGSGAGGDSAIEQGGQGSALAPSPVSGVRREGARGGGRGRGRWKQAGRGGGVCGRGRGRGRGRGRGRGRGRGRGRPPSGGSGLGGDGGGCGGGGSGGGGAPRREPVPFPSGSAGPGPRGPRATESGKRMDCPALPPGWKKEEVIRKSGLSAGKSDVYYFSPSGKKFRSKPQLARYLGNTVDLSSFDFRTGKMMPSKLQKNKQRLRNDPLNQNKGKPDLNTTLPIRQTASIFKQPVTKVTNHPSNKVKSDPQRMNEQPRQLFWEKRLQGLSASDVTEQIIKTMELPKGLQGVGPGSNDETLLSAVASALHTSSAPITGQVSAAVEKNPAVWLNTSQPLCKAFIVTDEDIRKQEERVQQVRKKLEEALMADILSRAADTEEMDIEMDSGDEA
# Results are given in words; binding and its absence hold for the method and conditions named. In cells and extracts the contact can be indirect. A yes stands for co-enrichment or nearness to the bait. Other partners may have been found. For some assays here: No binding means not detected with the bait.
# B1: Zinc finger transcription factor Trps1 (protein, UniProt Q9UHF7 1-1281)
# chain: MVRKKNPPLRNVASEGEGQILEPIGTESKVSGKNKEFSADQMSENTDQSDAAELNHKEEHSLHVQDPSSSSKKDLKSAVLSEKAGFNYESPSKGGNFPSFPHDEVTDRNMLAFSSPAAGGVCEPLKSPQRAEADDPQDMACTPSGDSLETKEDQKMSPKATEETGQAQSGQANCQGLSPVSVASKNPQVPSDGGVRLNKSKTDLLVNDNPDPAPLSPELQDFKCNICGYGYYGNDPTDLIKHFRKYHLGLHNRTRQDAELDSKILALHNMVQFSHSKDFQKVNRSVFSGVLQDINSSRPVLLNGTYDVQVTSGGTFIGIGRKTPDCQGNTKYFRCKFCNFTYMGNSSTELEQHFLQTHPNKIKASLPSSEVAKPSEKNSNKSIPALQSSDSGDLGKWQDKITVKAGDDTPVGYSVPIKPLDSSRQNGTEATSYYWCKFCSFSCESSSSLKLLEHYGKQHGAVQSGGLNPELNDKLSRGSVINQNDLAKSSEGETMTKTDKSSSGAKKKDFSSKGAEDNMVTSYNCQFCDFRYSKSHGPDVIVVGPLLRHYQQLHNIHKCTIKHCPFCPRGLCSPEKHLGEITYPFACRKSNCSHCALLLLHLSPGAAGSSRVKHQCHQCSFTTPDVDVLLFHYESVHESQASDVKQEANHLQGSDGQQSVKESKEHSCTKCDFITQVEEEISRHYRRAHSCYKCRQCSFTAADTQSLLEHFNTVHCQEQDITTANGEEDGHAISTIKEEPKIDFRVYNLLTPDSKMGEPVSESVVKREKLEEKDGLKEKVWTESSSDDLRNVTWRGADILRGSPSYTQASLGLLTPVSGTQEQTKTLRDSPNVEAAHLARPIYGLAVETKGFLQGAPAGGEKSGALPQQYPASGENKSKDESQSLLRRRRGSGVFCANCLTTKTSLWRKNANGGYVCNACGLYQKLHSTPRPLNIIKQNNGEQIIRRRTRKRLNPEALQAEQLNKQQRGSNEEQVNGSPLERRSEDHLTESHQREIPLPSLSKYEAQGSLTKSHSAQQPVLVSQTLDIHKRMQPLHIQIKSPQESTGDPGNSSSVSEGKGSSERGSPIEKYMRPAKHPNYSPPGSPIEKYQYPLFGLPFVHNDFQSEADWLRFWSKYKLSVPGNPHYLSHVPGLPNPCQNYVPYPTFNLPPHFSAVGSDNDIPLDLAIKHSRPGPTANGASKEKTKAPPNVKNEGPLNVVKTEKVDRSTQDELSTKCVHCGIVFLDEVMYALHMSCHGDSGPFQCSICQHLCTDKYDFTTHIQRGLHRNNAQVEKNGKPKE
# B2: Zinc finger and BTB domain-containing protein 10 (protein, UniProt Q96DT7 1-871)
# chain: MSFSEMNRRTLAFRGGGLVTASGGGSTNNNAGGEASAWPPQPQPRQPPPPAPPALQPPNGRGADEEVELEGLEPQDLEASAGPAAGAAEEAKELLLPQDAGGPTSLGGGAGGPLLAERNRRTLAFRGGGGGGLGNNGSSRGRPETSVWPLRHFNGRGPATVDLELDALEGKELMQDGASLSDSTEDEEEGASLGDGSGAEGGSCSSSRRSGGDGGDEVEGSGVGAGEGETVQHFPLARPKSLMQKLQCSFQTSWLKDFPWLRYSKDTGLMSCGWCQKTPADGGSVDLPPVGHDELSRGTRNYKKTLLLRHHVSTEHKLHEANAQESEIPSEEGYCDFNSRPNENSYCYQLLRQLNEQRKKGILCDVSIVVSGKIFKAHKNILVAGSRFFKTLYCFSNKESPNQNNTTHLDIAAVQGFSVILDFLYSGNLVLTSQNAIEVMTVASYLQMSEVVQTCRNFIKDALNISIKSEAPESVVVDYNNRKPVNRDGLSSSRDQKIASFWATRNLTNLASNVKIENDGCNVDEGQIENYQMNDSSWVQDGSPEMAENESEGQTKVFIWNNMGSQGIQETGKTRRKNQTTKRFIYNIPPNNETNLEDCSVMQPPVAYPEENTLLIKEEPDLDGALLSGPDGDRNVNANLLAEAGTSQDGGDAGTSHDFKYGLMPGPSNDFKYGLIPGTSNDFKYGLIPGASNDFKYGLLPESWPKQETWENGESSLIMNKLKCPHCSYVAKYRRTLKRHLLIHTGVRSFSCDICGKLFTRREHVKRHSLVHKKDKKYKCMVCKKIFMLAASVGIRHGSRRYGVCVDCADKSQPGGQEGVDQGQDTEFPRDEEYEENEVGEADEELVDDGEDQNDPSRWDESGEVCMSLDD
# B3: Zinc finger protein 512B (protein, UniProt Q96KM6 1-892)
# chain: MTDPFCVGGRRLPGSSKSGPGKDGSRKEVRLPMLHDPPKMGMPVVRGGQTVPGQAPLCFDPGSPASDKTEGKKKGRPKAENQALRDIPLSLMNDWKDEFKAHSRVKCPNSGCWLEFPSIYGLKYHYQRCQGGAISDRLAFPCPFCEAAFTSKTQLEKHRIWNHMDRPLPASKPGPISRPVTISRPVGVSKPIGVSKPVTIGKPVGVSKPIGISKPVSVGRPMPVTKAIPVTRPVPVTKPVTVSRPMPVTKAMPVTKPITVTKSVPVTKPVPVTKPITVTKLVTVTKPVPVTKPVTVSRPIVVSKPVTVSRPIAISRHTPPCKMVLLTRSENKAPRATGRNSGKKRAADSLDTCPIPPKQARPENGEYGPSSMGQSSAFQLSADTSSGSLSPGSRPSGGMEALKAAGPASPPEEDPERTKHRRKQKTPKKFTGEQPSISGTFGLKGLVKAEDKARVHRSKKQEGPGPEDARKKVPAAPITVSKEAPAPVAHPAPGGPEEQWQRAIHERGEAVCPTCNVVTRKTLVGLKKHMEVCQKLQDALKCQHCRKQFKSKAGLNYHTMAEHSAKPSDAEASEGGEQEERERLRKVLKQMGRLRCPQEGCGAAFSSLMGYQYHQRRCGKPPCEVDSPSFPCTHCGKTYRSKAGHDYHVRSEHTAPPPEEPTDKSPEAEDPLGVERTPSGRVRRTSAQVAVFHLQEIAEDELARDWTKRRMKDDLVPETARLNYTRPGLPTLNPQLLEAWKNEVKEKGHVNCPNDCCEAIYSSVSGLKAHLASCSKGAHLAGKYRCLLCPKEFSSESGVKYHILKTHAENWFRTSADPPPKHRSQDSLVPKKEKKKNLAGGKKRGRKPKERTPEEPVAKLPPRRDDWPPGCRDKGARGSTGRKVGVSKAPEK
# B4: PiggyBac transposable element-derived protein 3 (protein, UniProt Q8N328 1-593)
# chain: MPRTLSLHEITDLLETDDSIEASAIVIQPPENATAPVSDEESGDEEGGTINNLPGSLLHTAAYLIQDGSDAESDSDDPSYAPKDDSPDEVPSTFTVQQPPPSRRRKMTKILCKWKKADLTVQPVAGRVTAPPNDFFTVMRTPTEILELFLDDEVIELIVKYSNLYACSKGVHLGLTSSEFKCFLGIIFLSGYVSVPRRRMFWEQRTDVHNVLVSAAMRRDRFETIFSNLHVADNANLDPVDKFSKLRPLISKLNERCMKFVPNETYFSFDEFMVPYFGRHGCKQFIRGKPIRFGYKFWCGATCLGYICWFQPYQGKNPNTKHEEYGVGASLVLQFSEALTEAHPGQYHFVFNNFFTSIALLDKLSSMGHQATGTVRKDHIDRVPLESDVALKKKERGTFDYRIDGKGNIVCRWNDNSVVTVASSGAGIHPLCLVSRYSQKLKKKIQVQQPNMIKVYNQFMGGVDRADENIDKYRASIRGKKWYSSPLLFCFELVLQNAWQLHKTYDEKPVDFLEFRRRVVCHYLETHGHPPEPGQKGRPQKRNIDSRYDGINHVIVKQGKQTRCAECHKNTTFRCEKCDVALHVKCSVEYHTE
# B5: BEN domain-containing protein 3 (protein, UniProt Q5T5X7 1-828)
# chain: MNSTEFTEDVEEVLKSITVKVETEAEDAALDCSVNSRTSEKHSVDSVLTALQDSSKRKQLVSDGLLDSVPGVKRRRLIPEALLAGMRNRENSSPCQGNGEQAGRGRSLGNVWPGEEEPCNDATTPSYKKPLYGISHKIMEKKNPPSGDLLNVYELFEKANASNSPSSLRLLNEPQKRDCGSTGAGTDNDPNIYFLIQKMFYMLNTLTSNMSQLHSKVDLLSLEVSRIKKQVSPTEMVAKFQPPPEYQLTAAELKQIVDQSLSGGDLACRLLVQLFPELFSDVDFSRGCSACGFAAKRKLESLHLQLIRNYVEVYYPSVKDTAVWQAECLPQLNDFFSRFWAQREMEDSQPSGQVASFFEAEQVDPGHFLDNKDQEEALSLDRSSTIASDHVVDTQDLTEFLDEASSPGEFAVFLLHRLFPELFDHRKLGEQYSCYGDGGKQELDPQRLQIIRNYTEIYFPDMQEEEAWLQQCAQRINDELEGLGLDAGSEGDPPRDDCYDSSSLPDDISVVKVEDSFEGERPGRRSKKIWLVPIDFDKLEIPQPDFEVPGADCLLSKEQLRSIYESSLSIGNFASRLLVHLFPELFTHENLRKQYNCSGSLGKKQLDPSRIKLIRHYVQLLYPRAKNDRVWTLEFVGKLDERCRRRDTEQRRSYQQQRKVHVPGPECRDLTSYAINPERFREEFEGPPLPPERSSKDFCKIPLDELVVPSPDFPVPSPYLLSDKEVREIVQQSLSVGNFAARLLVRLFPELFTAENLRLQYNHSGACNKKQLDPTRLRLIRHYVEAVYPVEKMEEVWHYECIPSIDERCRRPNRKKCDILKKAKKVEK
# B6: Zinc finger protein 219, Q9P2Y4 1-722 (protein)
# chain: MEGSRPRAPSGHLAPSPPAFDGELDLQRYSNGPAVSAGSLGMGAVSWSESRAGERRFPCPVCGKRFRFNSILALHLRAHPGAQAFQCPHCGHRAAQRALLRSHLRTHQPERPRSPAARLLLELEERALLREARLGRARSSGGMQATPATEGLARPQAPSSSAFRCPYCKGKFRTSAERERHLHILHRPWKCGLCSFGSSQEEELLHHSLTAHGAPERPLAATSAAPPPQPQPQPPPQPEPRSVPQPEPEPEPEREATPTPAPAAPEEPPAPPEFRCQVCGQSFTQSWFLKGHMRKHKASFDHACPVCGRCFKEPWFLKNHMKVHASKLGPLRAPGPASGPARAPQPPDLGLLAYEPLGPALLLAPAPTPAERREPPSLLGYLSLRAGEGRPNGEGAEPGPGRSFGGFRPLSSALPARARRHRAEEPEEEEEVVEAEEETWARGRSLGSLASLHPRPGEGPGHSASAAGAQARSTATQEENGLLVGGTRPEGGRGATGKDCPFCGKSFRSAHHLKVHLRVHTGERPYKCPHCDYAGTQSGSLKYHLQRHHREQRSGAGPGPPPEPPPPSQRGSAPQSGAKPSPQPATWVEGASSPRPPSSGAGPGSRRKPASPGRTLRNGRGGEAEPLDLSLRAGPGGEAGPGGALHRCLFCPFATGAPELMALHLQVHHSRRARGRRPPQADASPPYARVPSGETPPSPSQEGEEGSGLSRPGEAGLGGQER
# B7: Cyclin-dependent kinase 2-associated protein 1, O14519 1-115 (protein)
# chain: MSYKPNLAAHMPAAALNAAGSVHSPSTSMATSSQYRQLLSDYGPPSLGYTQGTGNSQVPQSKYAELLAIIEELGKEIRPTYAGSKSAMERLKRGIIHARGLVRECLAETERNARS
# B8: RBAP46 (RBBP7), Q16576 1-425 (protein)
# chain: MASKEMFEDTVEERVINEEYKIWKKNTPFLYDLVMTHALQWPSLTVQWLPEVTKPEGKDYALHWLVLGTHTSDEQNHLVVARVHIPNDDAQFDASHCDSDKGEFGGFGSVTGKIECEIKINHEGEVNRARYMPQNPHIIATKTPSSDVLVFDYTKHPAKPDPSGECNPDLRLRGHQKEGYGLSWNSNLSGHLLSASDDHTVCLWDINAGPKEGKIVDAKAIFTGHSAVVEDVAWHLLHESLFGSVADDQKLMIWDTRSNTTSKPSHLVDAHTAEVNCLSFNPYSEFILATGSADKTVALWDLRNLKLKLHTFESHKDEIFQVHWSPHNETILASSGTDRRLNVWDLSKIGEEQSAEDAEDGPPELLFIHGGHTAKISDFSWNPNEPWVICSVSEDNIMQIWQMAENIYNDEESDVTTSELEGQGS
# Biological target: TTE-MBD2 (TY1-TY1-ER tagged human full length MBD2) (human) (UniProt Q9UBB5)
# Test: affinity purification with mass spectrometry; Ty1 immunoprecipitation (5 µg BB2 antibody, protein A/G plus-agarose beads) from 500 µg nuclear proteins of TTE-MBD2 MCF-7, over night at 4°C, triplicates; on-bead trypsin digestion, label-free quantitation (MaxQuant); WT MCF-7 as control
# Settings: not given
row,binding,Binder
1,binds,B1
2,binds,B2
3,binds,B3
4,binds,B4
5,binds,B5

# Biological target: TTE-MBD2 (TY1-TY1-ER tagged human full length MBD2) (human), Q9UBB5
# Test: as above
# Settings: remark: other sources report otherwise
row,binding,Binder
1,binds,B6
2,binds,B7
3,no binding,B8
